# Results as given in PubChem BioAssay (Tox21).
# Protein sequences, listed by entry. Tags and fused reporters are not part of them. Lines headed by an entry give the natural chain unless they say otherwise; changes in a name come on top.
# UniProt P28223, whole entry, looked up: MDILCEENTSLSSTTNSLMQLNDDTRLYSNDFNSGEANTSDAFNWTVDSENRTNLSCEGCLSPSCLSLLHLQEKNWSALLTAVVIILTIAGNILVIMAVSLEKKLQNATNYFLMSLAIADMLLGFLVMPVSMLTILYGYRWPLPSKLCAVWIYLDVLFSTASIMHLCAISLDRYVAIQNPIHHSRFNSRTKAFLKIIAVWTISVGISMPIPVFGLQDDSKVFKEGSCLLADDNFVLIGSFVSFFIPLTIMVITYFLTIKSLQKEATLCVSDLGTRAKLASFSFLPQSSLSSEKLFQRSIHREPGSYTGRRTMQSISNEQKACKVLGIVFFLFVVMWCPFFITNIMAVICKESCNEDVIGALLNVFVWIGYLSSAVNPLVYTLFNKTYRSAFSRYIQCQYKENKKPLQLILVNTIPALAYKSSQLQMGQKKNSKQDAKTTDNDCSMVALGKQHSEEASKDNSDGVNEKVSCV
# UniProt P14416, whole entry, looked up: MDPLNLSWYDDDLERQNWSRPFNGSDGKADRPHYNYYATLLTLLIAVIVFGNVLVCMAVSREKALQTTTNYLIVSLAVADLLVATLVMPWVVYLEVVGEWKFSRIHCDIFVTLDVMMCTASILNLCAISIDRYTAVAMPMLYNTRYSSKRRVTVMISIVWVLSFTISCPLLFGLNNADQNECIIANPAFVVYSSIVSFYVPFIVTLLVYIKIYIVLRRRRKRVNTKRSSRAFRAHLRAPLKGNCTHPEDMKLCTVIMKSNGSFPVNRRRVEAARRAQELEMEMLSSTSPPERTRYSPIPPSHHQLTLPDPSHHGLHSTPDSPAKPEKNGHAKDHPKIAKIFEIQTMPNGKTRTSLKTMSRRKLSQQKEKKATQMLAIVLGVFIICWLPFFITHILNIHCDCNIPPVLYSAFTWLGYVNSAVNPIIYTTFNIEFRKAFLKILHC
# UniProt P11229: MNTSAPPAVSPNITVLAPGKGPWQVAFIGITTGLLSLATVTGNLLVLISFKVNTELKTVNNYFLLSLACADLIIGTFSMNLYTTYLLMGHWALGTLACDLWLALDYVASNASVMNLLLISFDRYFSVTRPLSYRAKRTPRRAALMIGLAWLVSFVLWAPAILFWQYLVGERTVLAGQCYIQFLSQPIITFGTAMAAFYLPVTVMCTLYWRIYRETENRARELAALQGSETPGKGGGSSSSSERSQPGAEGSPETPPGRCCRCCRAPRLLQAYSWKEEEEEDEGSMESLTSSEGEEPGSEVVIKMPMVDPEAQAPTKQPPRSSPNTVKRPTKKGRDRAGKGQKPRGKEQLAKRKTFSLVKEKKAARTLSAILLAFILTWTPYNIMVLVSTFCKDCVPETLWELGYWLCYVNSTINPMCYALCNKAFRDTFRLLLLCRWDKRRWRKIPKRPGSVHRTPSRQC
# This list was built around the results that the source calls inconclusive (neither active nor inactive); the mix of calls is not that of the screen. For part of these data: A potency beside an inconclusive call is a rough fit, not a confirmed value. Calls of active or inactive are those of the source. Unless noted, calls follow the shape of the full dose curve.
# Key:
# [1] = p53 small molecule agonists, cell-based qHTS assay: qHTS cell viability counter screen (AID 1963581); also: nearly all actives have a fitted effect of over 45% in size; also: potency is read from the fitted curve at half-maximal effect
# In short: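 In the same plates used for the p53 bla reporter, HCT-116 cells given compounds for 16 h at 37 C received CellTiter-Glo; luminescence was recorded 30 min later at room temperature.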
# [2] = biological target: 5-hydroxytryptamine receptor 2A (Homo sapiens) (UniProt P28223); assay: 5-hydroxytryptamine receptor 2A (HTR2A) small molecule agonists, cell-based qHTS assay (AID 1963587); conditions: HTR2A-CHO cells, calcium flux fluorescence, agonist mode; activation: at 76.8 µM (top of the series); also: nearly all actives have a fitted effect of over 30% in size; also: potency is read from the fitted curve at half-maximal effect; as to activation: % is scaled to controls: 0 for no effect and ±100 for the full control effect
# In short: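 HTR2A-CHO cells, plated 18 h at 37 C/5% CO2, dye-loaded 1 h at 37 C; compounds in DMSO added by pin tool (agonist mode). Intracellular calcium flux read as kinetic fluorescence on FDSS over 2 min at 1 s intervals.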
# [3] = cAMP Responsive Elements (CRE) small molecule agonists, cell-based qHTS assay (AID 1963590); conditions: CRE-bla HEK293T, beta-lactamase FRET ratio, 3 h; activation: at 92.4 µM (top of the series) unless noted; also: potency is read from the fitted curve at half-maximal effect; as to activation: % is scaled to controls: 0 for no effect and ±100 for the full control effect
# In short: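 Cell line: CRE-bla HEK 293T; medium DMEM/10% dialyzed FBS/0.1 mM NEAA/1 mM pyruvate/25 mM HEPES; 3 h compound exposure; beta-lactamase FRET readout after 2 h substrate loading at RT.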
# [4] = biological target: D(2) dopamine receptor (Homo sapiens) (UniProt P14416); assay: Dopamine D2 receptor (DRD2) small molecule agonists, cell-based qHTS assay (AID 1963594); conditions: HEK293-DRD2 cAMP HTRF, agonist mode, 30 min; activation: at 92.4 µM (top of the series) unless noted; also: nearly all actives have a fitted effect of over 35% in size; also: potency is read from the fitted curve at half-maximal effect; as to activation: % is scaled to controls: 0 for no effect and ±100 for the full control effect
# In short: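 HEK293 cells stably expressing DRD2 were cultured 24 h at 37 C, then given Ro20-1724 (0.1 mM final) and compounds for 10 min at room temperature. NKH477 (200nM) was then added for 30 min. cAMP was read by HTRF.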
# [5] = biological target: D(2) dopamine receptor (Homo sapiens) (UniProt P14416); assay: Dopamine D2 receptor (DRD2) small molecule antagonists, cell-based qHTS assay (AID 1963595; active = well fitted inhibition curve with a large enough effect in the signal ratio in the repeat runs, with a control signal flat; inconclusive = weak or mixed curves, or effect the other way; the % refers to the signal ratio; also: % is scaled to controls: 0 for no effect and ±100 for the full control effect); conditions: HEK293-DRD2 cAMP HTRF antagonist mode; activity change, negative = inhibition: at 92.4 µM (top of the series) unless noted
# In short: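 Antagonism was scored as restored cAMP in HEK293-DRD2 cells. These cells were stimulated with 200 nM NKH477 and 12 nM quinpirole for 30 min at room temperature, in the presence of 0.1 mM Ro20-1724.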
# [6] = cAMP Responsive Elements (CRE) small molecule antagonists, cell-based qHTS assay (AID 1963591; active = well fitted inhibition curve with a large enough effect in the signal ratio in the repeat runs, not every such curve was filed as active; inconclusive = weak or mixed curves, or effect the other way; the % refers to the signal ratio; also: potency is read from the fitted curve at half-maximal effect); conditions: CRE-bla HEK293T, beta-lactamase FRET ratio; activity change, negative = inhibition: at 92.4 µM (top of the series) unless noted
# In short: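 Inhibition of NKH477-driven (0.25 uM final) CRE-beta-lactamase signal in HEK293T cells, 3 h compound exposure at 37 °C, detected by FRET substrate fluorescence.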
# [7] = biological target: Beta-2 adrenergic receptor (Homo sapiens) (UniProt P07550); assay: Adrenergic beta2 receptor (ADRB2) small molecule agonists, cell-based qHTS assay (AID 1963593); conditions: CHO-ADRB2 cells, cAMP HTRF, 30 min; activation: at 92.4 µM (top of the series) unless noted; also: potency is read from the fitted curve at half-maximal effect
# In short: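 CHO cells stably over-expressing ADRB2 were plated overnight at 37C, then dosed with compounds plus a stimulation mix containing 100uM IBMX and 25uM Ro-20-1724 for 0.5hr at room temperature. cAMP was measured by HTRF competition, 1hr.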
# [8] = biological target: Muscarinic acetylcholine receptor M1 (Homo sapiens) (UniProt P11229); assay: Cholinergic receptor muscarinic 1 (CHRM1) small molecule agonists, cell-based qHTS assay (AID 1963589); conditions: CHRM1-CHO cells, agonist mode, calcium flux fluorescence; activation: at 76.8 µM (top of the series); also: nearly all actives have a fitted effect of over 35% in size; also: potency is read from the fitted curve at half-maximal effect
# In short: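 Each compound was tested at 15 concentrations across three independent runs on dye-loaded CHO cells stably expressing human CHRM1, reading intracellular calcium fluorescence kinetically at 1 sec intervals.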
# [9] = biological target: 5-hydroxytryptamine receptor 2A (Homo sapiens) (UniProt P28223); assay: 5-hydroxytryptamine receptor 2A (HTR2A) small molecule antagonists, cell-based qHTS assay (AID 1963586); also: nearly all actives have a fitted effect of over 45% in size; also: potency is read from the fitted curve at half-maximal effect
# In short: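 Antagonist-mode intracellular calcium assay: DOI (4 nM) added after 5 min compound pre-incubation at room temperature to dye-loaded HTR2A-CHO cells. Fluorescence followed for 3 min, sampled every second.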
# [10] = biological target: Muscarinic acetylcholine receptor M1 (Homo sapiens) (UniProt P11229); assay: Cholinergic receptor muscarinic 1 (CHRM1) small molecule antagonists, cell-based qHTS assay (AID 1963588); also: potency is read from the fitted curve at half-maximal effect; nearly all actives have a fitted effect of over 40% in size
# In short: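 CHRM1-CHO calcium-flux assay, antagonist mode. Cells were seeded 18 h, dye-loaded 1 h at 37 C and given compound for 5 min at RT, then acetylcholine was added at 50nM. FDSS fluorescence was read 3 min; 15 concentrations, three runs.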
# [11] = biological target: Beta-2 adrenergic receptor (Homo sapiens) (UniProt P07550); assay: Adrenergic beta2 receptor (ADRB2) small molecule antagonists, cell-based qHTS assay (AID 1963592); conditions: CHO-ADRB2 cells, isoproterenol-stimulated cAMP HTRF ratio, 0.5 h; activity change, negative = inhibition: at 92.4 µM (top of the series) unless noted; also: potency is read from the fitted curve at half-maximal effect; nearly all actives have a fitted effect of over 50% in size
# In short: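 Cells (CHO, stable ADRB2 overexpression) incubated 18-20hr at 37C; compounds added from DMSO; agonist mix (1nM isoproterenol, 100uM IBMX, 25uM Ro-20-1724) added; 0.5hr RT; d2-cAMP and anti-cAMP-cryptate added; 1hr RT; 665/615 nm read.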
smiles,measurement,setting,value
O=C1C=CC(=O)C=C1,Potency,[1],"inconclusive: 0.0033 µM [cytotoxic, full curve, poor fit]"
same,Potency,[2],inactive
II,Potency,[1],inactive
same,Potency,[2],"inconclusive: 54.9 µM [activator, single point]"
same,Potency,[3],inactive
same,Potency,[4],inactive
same,"activity change, negative = inhibition",[5],inconclusive: -106%
CCNc1nc(Cl)nc(NC(C)(C)C#N)n1,Potency,[1],"inconclusive: 0.646 µM [rising, single point]"
same,Potency,[3],"inconclusive: 76.9 µM [rising, partial curve, poor fit]"
C[C@]12C=CC(=O)C=C1CC[C@@H]1[C@@H]2CC[C@@]2(C)[C@H]1CC[C@]2(C)O,Potency,[1],"inconclusive: 19.9 µM [rising, partial curve, poor fit]"
same,Potency,[3],"inconclusive: 26.6 µM [rising, partial curve]"
same,Potency,[6],"inconclusive: 33.5 µM [activator, partial curve, poor fit]"
same,Potency,[7],"inconclusive: 33.5 µM [activator, single point]"
CCCCP(CCCC)CCCC,Potency,[1],inactive
same,Potency,[3],"inconclusive: 30.6 µM [rising, partial curve, poor fit]"
same,Potency,[7],inactive
CC1CN1P(=O)(N1CC1C)N1CC1C (stereo not drawn),Potency,[1],"inconclusive: 0.458 µM [rising, partial curve]"
same,Potency,[3],inactive
same,activation,[7],inconclusive: -0.933%
CCC1(CC)C(=O)NC(=O)NC1=O,Potency,[1],"inconclusive: 9.98 µM [rising, partial curve, poor fit]"
same,Potency,[8],inactive
same,Potency,[3],inactive
same,activation,[7],inconclusive: 25.8% [at 42.5 µM]
same,"activity change, negative = inhibition",[5],inconclusive: -1.72% [at 42.5 µM]
CCCCCl,Potency,[1],"inconclusive: 4.7 µM [cytotoxic, single point]"
same,Potency,[3],inactive
same,activation,[7],inconclusive: -36.7%
O=C(Cc1ccccc1)OCc1ccccc1,Potency,[1],"inconclusive: 1.63 µM [cytotoxic, full curve]"
same,Potency,[9],"inconclusive: 0.845 µM [inhibitor, single point]"
same,Potency,[3],inactive
same,Potency,[6],inactive
same,activation,[7],inconclusive: 1.96%
CC(C)N(CCC(C(N)=O)(c1ccccc1)c1ccccn1)C(C)C (stereo not drawn),Potency,[1],"inconclusive: 8.9 µM [rising, single point]"
same,Potency,[10],active: 2.05 µM
same,Potency,[4],active: 11.4 µM
OCCBr,Potency,[1],"inconclusive: 0.0041 µM [cytotoxic, full curve, poor fit]"
same,Potency,[3],inactive
same,activation,[7],inconclusive: 20.8%
O=C(O)C(Cl)Cl,Potency,[1],"inconclusive: 7.07 µM [rising, partial curve, poor fit]"
same,Potency,[10],"inconclusive: 0.0193 µM [inhibitor, full curve, poor fit]"
same,Potency,[6],inactive
same,Potency,[7],inactive
C[C@@H]1CC2=CC(=O)CC[C@@H]2[C@H]2CC[C@@]3(C)[C@@H](CC[C@]3(C)O)[C@@H]21,Potency,[1],inactive
same,Potency,[3],inconclusive: 26.6 µM
same,Potency,[6],inconclusive: 18.8 µM [activator]
CCNc1nc(Cl)nc(NC(C)(C)C)n1,Potency,[1],inactive
same,Potency,[3],"inconclusive: 48.6 µM [rising, partial curve, poor fit]"
same,Potency,[6],inactive
same,activation,[7],inconclusive: -30.9%
O=C(O)C(F)(F)C(F)(F)C(F)(F)C(F)(F)C(F)(F)C(F)(F)C(F)(F)F,Potency,[1],inactive
same,Potency,[9],"inconclusive: 0.237 µM [inhibitor, partial curve, poor fit]"
same,activation,[7],inconclusive: -17.3%
same,Potency,[5],inactive
C1CCNCC1,Potency,[1],"inconclusive: 42.1 µM [cytotoxic, single point]"
same,Potency,[9],"inconclusive: 1.73 µM [inhibitor, full curve, poor fit]"
same,Potency,[3],inactive
same,Potency,[7],inactive
CCBr,Potency,[1],inactive
same,Potency,[3],inactive
CSSC,Potency,[1],"inconclusive: 14.6 µM [rising, full curve]"
same,Potency,[3],"inconclusive: 55.1 µM [rising, single point]"
CNC(C)Cc1ccccc1OC (stereo not drawn),Potency,[1],inactive
same,Potency,[9],"inconclusive: 20.5 µM [inhibitor, single point]"
same,Potency,[6],inactive
CCC(C)(C)O,Potency,[1],"inconclusive: 0.408 µM [cytotoxic, single point]"
same,Potency,[9],inactive
same,Potency,[7],inactive
c1ccc2nc(N3CCNCC3)ccc2c1,Potency,[1],"inconclusive: 22.3 µM [rising, single point]"
same,Potency,[9],active: 0.0033 µM
same,Potency,[8],"inconclusive: 2.68 µM [rising, full curve, poor fit]"
same,Potency,[6],inactive
same,Potency,[7],"inconclusive: 3.35 µM [inhibitor, partial curve]"
Clc1ccccc1N1CCNCC1,Potency,[1],"inconclusive: 12.6 µM [cytotoxic, single point]"
same,Potency,[9],active: 1.16 µM
same,Potency,[2],"inconclusive: 0.268 µM [activator, full curve, poor fit]"
same,Potency,[11],"inconclusive: 5.96 µM [inhibitor, full curve]"
same,Potency,[7],"inconclusive: 29.8 µM [inhibitor, partial curve, poor fit]"
same,Potency,[4],inactive

# Exported with bars between the fields: part of the list above
smiles | measurement | setting | value
O=C1C=CC(=O)C=C1 | Potency | [1] | inconclusive: 0.0033 µM [cytotoxic, full curve, poor fit]
CCNc1nc(Cl)nc(NC(C)(C)C#N)n1 | Potency | [1] | inconclusive: 0.646 µM [rising, single point]
CCCCP(CCCC)CCCC | Potency | [1] | inactive
CC1CN1P(=O)(N1CC1C)N1CC1C (stereo not drawn) | Potency | [1] | inconclusive: 0.458 µM [rising, partial curve]
CCC1(CC)C(=O)NC(=O)NC1=O | Potency | [1] | inconclusive: 9.98 µM [rising, partial curve, poor fit]
same | Potency | [3] | inactive
CCCCCl | activation | [7] | inconclusive: -36.7%
O=C(Cc1ccccc1)OCc1ccccc1 | Potency | [9] | inconclusive: 0.845 µM [inhibitor, single point]
same | Potency | [3] | inactive
same | Potency | [6] | inactive
CC(C)N(CCC(C(N)=O)(c1ccccc1)c1ccccn1)C(C)C (stereo not drawn) | Potency | [1] | inconclusive: 8.9 µM [rising, single point]
same | Potency | [4] | active: 11.4 µM
OCCBr | Potency | [1] | inconclusive: 0.0041 µM [cytotoxic, full curve, poor fit]
same | Potency | [3] | inactive
O=C(O)C(Cl)Cl | Potency | [7] | inactive
C1CCNCC1 | Potency | [3] | inactive
CSSC | Potency | [3] | inconclusive: 55.1 µM [rising, single point]
CNC(C)Cc1ccccc1OC (stereo not drawn) | Potency | [9] | inconclusive: 20.5 µM [inhibitor, single point]
c1ccc2nc(N3CCNCC3)ccc2c1 | Potency | [9] | active: 0.0033 µM
same | Potency | [8] | inconclusive: 2.68 µM [rising, full curve, poor fit]
Clc1ccccc1N1CCNCC1 | Potency | [1] | inconclusive: 12.6 µM [cytotoxic, single point]
